From article doi:10.1101/2025.04.22.649924
These are yes or no findings as the source states them, for the method shown. Binding seen in cells or lysates may run through a third protein. A yes stands for co-enrichment or nearness to the bait. Other partners may have been found.

The chains behind the UniProt entries cited, without tags or fusion partners. Residues count along the entry.
UniProt Q92673, residues 82-2214: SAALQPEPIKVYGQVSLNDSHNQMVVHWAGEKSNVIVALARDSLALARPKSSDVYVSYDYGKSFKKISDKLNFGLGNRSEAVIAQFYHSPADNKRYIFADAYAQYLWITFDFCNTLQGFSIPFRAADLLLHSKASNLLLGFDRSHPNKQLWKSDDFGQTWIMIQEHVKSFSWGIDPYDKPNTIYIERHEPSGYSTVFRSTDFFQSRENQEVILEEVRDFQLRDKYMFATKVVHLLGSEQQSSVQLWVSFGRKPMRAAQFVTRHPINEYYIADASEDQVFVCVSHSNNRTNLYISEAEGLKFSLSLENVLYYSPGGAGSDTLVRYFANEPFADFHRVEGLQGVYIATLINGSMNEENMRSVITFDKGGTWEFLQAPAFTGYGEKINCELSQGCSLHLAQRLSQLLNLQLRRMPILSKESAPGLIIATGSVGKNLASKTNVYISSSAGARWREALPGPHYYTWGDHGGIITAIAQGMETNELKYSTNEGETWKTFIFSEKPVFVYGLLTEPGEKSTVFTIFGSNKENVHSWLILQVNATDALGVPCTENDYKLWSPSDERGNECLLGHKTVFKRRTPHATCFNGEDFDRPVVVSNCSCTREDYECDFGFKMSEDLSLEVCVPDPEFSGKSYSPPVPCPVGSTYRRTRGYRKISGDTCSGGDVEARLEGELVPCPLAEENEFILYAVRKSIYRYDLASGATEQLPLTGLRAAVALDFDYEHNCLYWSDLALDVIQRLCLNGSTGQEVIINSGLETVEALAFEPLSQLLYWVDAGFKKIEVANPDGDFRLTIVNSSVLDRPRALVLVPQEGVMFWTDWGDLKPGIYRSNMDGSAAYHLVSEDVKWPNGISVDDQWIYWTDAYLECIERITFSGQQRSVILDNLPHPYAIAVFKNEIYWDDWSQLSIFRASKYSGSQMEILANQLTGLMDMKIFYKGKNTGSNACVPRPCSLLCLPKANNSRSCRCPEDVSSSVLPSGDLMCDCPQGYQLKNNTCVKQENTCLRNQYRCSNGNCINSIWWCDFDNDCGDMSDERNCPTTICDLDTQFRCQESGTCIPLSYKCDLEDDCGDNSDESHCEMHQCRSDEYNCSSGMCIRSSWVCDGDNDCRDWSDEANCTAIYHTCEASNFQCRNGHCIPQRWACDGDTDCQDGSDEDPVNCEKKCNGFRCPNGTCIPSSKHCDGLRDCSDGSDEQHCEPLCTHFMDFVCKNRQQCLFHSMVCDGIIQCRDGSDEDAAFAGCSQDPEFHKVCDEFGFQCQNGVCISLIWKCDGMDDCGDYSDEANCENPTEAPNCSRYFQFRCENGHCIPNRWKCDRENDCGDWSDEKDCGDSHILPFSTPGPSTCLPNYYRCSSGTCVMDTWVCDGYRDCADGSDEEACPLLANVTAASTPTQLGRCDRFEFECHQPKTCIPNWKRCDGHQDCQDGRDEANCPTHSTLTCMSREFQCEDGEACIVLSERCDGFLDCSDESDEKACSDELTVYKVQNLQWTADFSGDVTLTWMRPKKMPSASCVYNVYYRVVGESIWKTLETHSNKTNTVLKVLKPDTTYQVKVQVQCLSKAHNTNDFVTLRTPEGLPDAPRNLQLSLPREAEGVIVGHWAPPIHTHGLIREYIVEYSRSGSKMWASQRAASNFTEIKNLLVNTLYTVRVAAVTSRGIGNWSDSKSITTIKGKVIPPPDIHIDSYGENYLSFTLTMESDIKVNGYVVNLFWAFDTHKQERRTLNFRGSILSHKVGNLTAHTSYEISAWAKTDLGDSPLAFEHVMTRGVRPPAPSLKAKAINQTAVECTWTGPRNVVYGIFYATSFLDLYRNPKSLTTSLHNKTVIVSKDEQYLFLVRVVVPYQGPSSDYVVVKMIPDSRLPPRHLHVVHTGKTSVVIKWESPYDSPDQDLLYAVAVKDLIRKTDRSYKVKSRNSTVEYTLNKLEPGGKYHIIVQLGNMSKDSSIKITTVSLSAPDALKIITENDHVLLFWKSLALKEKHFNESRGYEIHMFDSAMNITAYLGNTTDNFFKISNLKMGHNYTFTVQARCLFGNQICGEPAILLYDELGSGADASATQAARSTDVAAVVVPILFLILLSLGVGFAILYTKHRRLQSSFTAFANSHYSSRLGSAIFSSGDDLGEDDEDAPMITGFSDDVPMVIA
UniProt P05067, residues 18-770: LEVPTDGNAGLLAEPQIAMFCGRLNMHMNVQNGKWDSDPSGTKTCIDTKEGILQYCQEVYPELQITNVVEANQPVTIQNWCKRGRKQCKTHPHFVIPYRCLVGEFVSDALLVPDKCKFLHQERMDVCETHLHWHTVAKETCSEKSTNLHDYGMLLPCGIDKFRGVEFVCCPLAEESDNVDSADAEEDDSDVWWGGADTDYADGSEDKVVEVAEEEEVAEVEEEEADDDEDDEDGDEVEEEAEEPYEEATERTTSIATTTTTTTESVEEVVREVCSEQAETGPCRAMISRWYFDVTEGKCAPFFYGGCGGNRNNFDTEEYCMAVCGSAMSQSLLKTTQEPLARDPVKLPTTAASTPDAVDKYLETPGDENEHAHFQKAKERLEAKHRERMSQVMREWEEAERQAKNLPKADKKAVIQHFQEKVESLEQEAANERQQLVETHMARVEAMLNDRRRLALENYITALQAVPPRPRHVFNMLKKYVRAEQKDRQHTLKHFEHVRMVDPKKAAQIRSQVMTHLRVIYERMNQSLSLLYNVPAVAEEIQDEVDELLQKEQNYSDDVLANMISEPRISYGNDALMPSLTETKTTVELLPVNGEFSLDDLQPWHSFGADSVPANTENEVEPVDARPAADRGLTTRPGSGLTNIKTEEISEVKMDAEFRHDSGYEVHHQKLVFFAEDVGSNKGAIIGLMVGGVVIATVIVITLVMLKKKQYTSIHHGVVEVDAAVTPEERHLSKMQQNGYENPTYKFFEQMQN

Molecular target: SORLA^WT stably expressed in SY5Y cells (human) (UniProt Q92673)
Assay: affinity purification with mass spectrometry

binding: binds
Substance: amyloid precursor protein (APP) in SY5Y cell lysate (from UniProt P05067 18-770)
